Data taken from PubChem BioAssay AID330 (DTP/NCI, 2004).
The list shows only some results of the screen, not a fair sample: it is rich in T/C values a quarter to a half above the control, in often repeated tests (any T/C) and in doses without a T/C. Further doses and runs are listed elsewhere. T/C gives the treated animals as a percentage of the vehicle group. Some doses have a count of surviving animals in place of a T/C: the source files T/C as zero there, which appears to mark a toxic dose or a test without result, not a measured value. Some survivor counts are full or nearly so, which does not show that the dose was tolerated: survival well below the control is almost never listed, so the zero probably covers shortened survival too. Counts of survivors are from the toxicity check (mostly the fifth day) where no day follows; animals may have died later. Schedule codes are those of the source, read here as Q, the interval in days (D) or hours (H), X, the number of doses. Some molecules as drawn cover several salts, stereoisomers or complexes of the source; a dose is that of the sample tested. Where survival is the endpoint, this PubChem deposit counts one and a half times the control or more as active, and values a quarter to a half above the control carry no call in these data; other NCI protocols may use other cut-offs. Some entries hold several experiments; their values stand side by side, smallest first. Some T/C values are followed by the survivors on the day toxicity was checked, most often the fifth; where none is given, no animal had died by that day.

Test system: P388 leukemia ip, CD2F1 mice, survival T/C
Experiment: NCI In Vivo Anticancer Drug Screen. Data for tumor model P388 Leukemia (intraperitoneal) in CD2F1 (CDF1) mice
Settings: T/C endpoint: median survival time, higher T/C = longer survival
[1] = dose: 400.0 mg/kg/injection, schedule: Q04DX003 (ip), vehicle: saline with Tween-80
[2] = dose: 400.0 mg/kg/injection, schedule: Q01DX001 (ip), vehicle: saline with Tween-80
[3] = dose: 50.0 mg/kg/injection, schedule: Q01DX009 (ip), vehicle: saline with Tween-80
[4] = dose: 100.0 mg/kg/injection, schedule: Q01DX009 (ip), vehicle: saline with Tween-80
[5] = dose: 200.0 mg/kg/injection, schedule: Q01DX009 (ip), vehicle: saline with Tween-80
[6] = dose: 200.0 mg/kg/injection, schedule: Q04DX002 (ip), vehicle: saline with Tween-80
[7] = dose: 200.0 mg/kg/injection, schedule: Q01DX009 (ip), vehicle: saline
[8] = dose: 200.0 mg/kg/injection, schedule: Q01DX005 (ip), vehicle: saline
[9] = dose: 400.0 mg/kg/injection, schedule: Q01DX009 (ip), vehicle: Klucel (hydroxypropylcellulose) (HPC)
[10] = dose: 50.0 mg/kg/injection, schedule: Q01DX005 (ip), vehicle: saline with Tween-80
[11] = dose: 100.0 mg/kg/injection, schedule: Q01DX005 (ip), vehicle: saline with Tween-80
[12] = dose: 25.0 mg/kg/injection, schedule: Q01DX009 (ip), vehicle: saline with Tween-80

## CCC(Br)C(=O)SC(C)(C)C (configuration not stated)
[1]
  survivor count: 1 of 6

## COC(=O)c1[c]([Sn]([CH3])([CH3])[CH3])n[n]([Sn]([CH3])([CH3])[CH3])c1C(=O)OC
dose: 25.0 mg/kg/injection, schedule: Q04DX003 (ip), vehicle: saline
  survivor count: 0 of 6
dose: 100.0 mg/kg/injection, schedule: Q04DX003 (ip), vehicle: saline with Tween-80
  survivor count: 0 of 6
dose: 200.0 mg/kg/injection, schedule: Q04DX003 (ip), vehicle: saline with Tween-80
  survivor count: 0 of 6
[1]
  survivor count: 0 of 6

## O=C(O)CSC(CC(=O)O)C(F)(F)C(F)(F)C(F)(F)F (configuration not stated)
dose: 400.0 mg/kg/injection, schedule: Q04DX003 (ip), vehicle: saline
  survivor count: 4 of 6

## O=c1[nH]c(=O)n(C2CC(O)C(CO)O2)cc1C(F)(F)F (configuration not stated)
dose: 31.25 mg/kg/injection, schedule: Q01DX009 (ip), vehicle: Klucel (hydroxypropylcellulose) (HPC), evaluated on day 20
  T/C: 131 % of control
dose: 31.25 mg/kg/injection, schedule: Q01DX009 (ip), vehicle: Klucel (hydroxypropylcellulose) (HPC), evaluated on day 30
  T/C: 140 % of control
dose: 62.5 mg/kg/injection, schedule: Q01DX009 (ip), vehicle: Klucel (hydroxypropylcellulose) (HPC)
  T/C: 130 and 133 % of control
dose: 125.0 mg/kg/injection, schedule: Q01DX009 (ip), vehicle: Klucel (hydroxypropylcellulose) (HPC)
  T/C: 146 % of control
dose: 250.0 mg/kg/injection, schedule: Q01DX009 (ip), vehicle: Klucel (hydroxypropylcellulose) (HPC), evaluated on day 20
  T/C: 128 % of control
dose: 250.0 mg/kg/injection, schedule: Q01DX009 (ip), vehicle: Klucel (hydroxypropylcellulose) (HPC), evaluated on day 30
  T/C: 142 % of control
dose: 500.0 mg/kg/injection, schedule: Q01DX009 (ip), vehicle: Klucel (hydroxypropylcellulose) (HPC)
  T/C: 132 % of control
dose: 1000.0 mg/kg/injection, schedule: Q01DX005 (ip), vehicle: Klucel (hydroxypropylcellulose) (HPC)
  survivor count: 6 of 6

## CCN(CC)Cc1cc(N=Nc2ccc(N(C)C)cc2)ccc1O
[2]
  survivor count: 6 of 6

## C=C(C)C#CCN(CCO)C(C)C
dose: 240.0 mg/kg/injection, schedule: Q01DX005 (ip), vehicle: saline with Tween-80
  survivor count: 0 of 6

## CCN(CC)CCCC(C)Nc1ccnc2cc(N(C)C)ccc12 (configuration not stated)
[3]
  survivor count: 6 of 6
[4]
  survivor count: 0 of 6
[5]
  survivor count: 0 of 6

## C=C1C(=O)OC2C1CCC(C)C1C=CC(=O)C12C (configuration not stated)
[6]
  survivor count: 2 of 6

## CN1CC[C@]23c4c5ccc(O)c4O[C@H]2C(=O)CC[C@H]3[C@H]1C5
dose: 100.0 mg/kg/injection, schedule: Q01DX009 (ip), vehicle: saline
  survivor count: 2 of 6
[7]
  survivor count: 0 of 6

## CCC(/C=N/N=C(N)N)=N\N=C(N)N
[8]
  survivor count: 0 of 6

## O=C(NO)C1CCCCC1O (configuration not stated)
dose: 100.0 mg/kg/injection, schedule: Q04DX003 (ip), vehicle: saline
  survivor count: 6 of 6
dose: 200.0 mg/kg/injection, schedule: Q04DX003 (ip), vehicle: saline
  survivor count: 6 of 6

## OCC1OC(n2cnc3c(SCc4ccccc4)ncnc32)C(O)C1O (configuration not stated)
dose: 300.0 mg/kg/injection, schedule: Q01DX009 (ip), vehicle: saline with Tween-80
  survivor count: 5 of 6

## CCc1nn(CCCN2CCN(c3cccc(Cl)c3)CC2)c(=O)n1CC
[7]
  survivor count: 0 of 6

## O=[N+]([O-])c1cc([N+](=O)[O-])c2ccc(S(=O)(=O)O)cc2c1O
dose: 25.0 mg/kg/injection, schedule: Q04DX002 (ip), vehicle: saline
  survivor count: 6 of 6
[6]
  survivor count: 1 of 6
[2]
  survivor count: 3 of 6
dose: 400.0 mg/kg/injection, schedule: Q04DX002 (ip), vehicle: saline with Tween-80
  survivor count: 2 of 6

## Cc1ccc([P+](CCN2C(=O)c3ccccc3C2=O)(c2ccc(C)cc2)c2ccc(C)cc2)cc1
dose: 6.25 mg/kg/injection, schedule: Q01DX009 (ip), vehicle: water
  T/C: 127 % of control
dose: 12.5 mg/kg/injection, schedule: Q01DX009 (ip), vehicle: water
  survivor count: 3 of 6

## NC1=NCc2c(sc3c2CCCC3)N1
dose: 100.0 mg/kg/injection, schedule: Q01DX005 (ip), vehicle: Klucel (hydroxypropylcellulose) (HPC)
  survivor count: 0 of 6
dose: 200.0 mg/kg/injection, schedule: Q01DX005 (ip), vehicle: Klucel (hydroxypropylcellulose) (HPC)
  survivor count: 1 of 6

## O=C(O)C1(NO)CCCCC1
dose: 200.0 mg/kg/injection, schedule: Q01DX009 (ip), vehicle: Klucel (hydroxypropylcellulose) (HPC)
  T/C: 126 % of control
[9]
  T/C: 142 % of control

## CN1C(=O)C2C3C=CC(C2C1=O)C1C2C(=O)N(C)C(=O)C2C31 (configuration not stated)
[9]
  T/C: 135 % of control

## O=C1C(Cl)=C(Sc2nc3ccccc3s2)C(=O)c2ccccc21
[10]
  survivor count: 3 of 5

## COc1cc(NCCCCCNC(C)(C)C)c2ncccc2c1
[11]
  survivor count: 2 of 5
dose: 200.0 mg/kg/injection, schedule: Q01DX005 (ip), vehicle: saline with Tween-80
  survivor count: 0 of 5

## CN=c1ccc2cc3ccc(NC)cc3oc-2c1
[8]
  survivor count: 0 of 5

## CSC(=S)N/N=C(/C)CC(C)C
[3]
  survivor count: 1 of 6
[4]
  survivor count: 3 of 6
[5]
  survivor count: 0 of 6

## CCC[CH2][Sn]([CH2]CCC)([CH2]CCC)[C]1(CCCC2CO2)SCCCS1 (configuration not stated)
[3]
  survivor count: 6 of 6
[4]
  survivor count: 4 of 6
[5]
  survivor count: 0 of 6

## CN(C)c1ccc(C(=N)Cc2ccc3ccccc3n2)cc1
dose: 300.0 mg/kg/injection, schedule: Q01DX009 (ip), vehicle: Klucel (hydroxypropylcellulose) (HPC)
  survivor count: 3 of 6

## NC(N)=NS(=O)(=O)c1ccc(N=NC2C(=O)N(c3ccc(Cl)cc3)C(=S)N(c3ccc(Cl)cc3)C2=O)cc1
[8]
  T/C: 136 % of control [4 of 6 alive]

## OCC[CH2][Pb]([c]1ccccc1)([c]1ccccc1)[c]1ccccc1
dose: 6.25 mg/kg/injection, schedule: Q01DX009 (ip), vehicle: Klucel (hydroxypropylcellulose) (HPC)
  T/C: 127 % of control
dose: 12.5 mg/kg/injection, schedule: Q01DX009 (ip), vehicle: Klucel (hydroxypropylcellulose) (HPC)
  survivor count: 2 of 6

## Cc1ccc(-n2c(=O)[nH]c3ccccc3c2=O)cc1[N+](=O)[O-]
dose: 25.0 mg/kg/injection, schedule: Q01DX005 (ip), vehicle: saline with Tween-80
  survivor count: 5 of 5
[10]
  survivor count: 6 of 6
[11]
  survivor count: 6 of 6

## CCCc1cccc2c3c([nH]c12)C(CC)(CC(=O)O)CCC3 (configuration not stated)
[4]
  survivor count: 5 of 6
[5]
  survivor count: 5 of 6

## CS1(=O)=NC(=N)c2ccccc21 (configuration not stated)
[7]
  survivor count: 3 of 6

## CCCCCCCCCCCCCCCCCCCCCC(=O)Nc1ccn(C2OC(CO)C(O)C2O)c(=O)n1 (configuration not stated)
dose: 0.39 mg/kg/injection, schedule: Q01DX009 (ip), vehicle: saline with Tween-80
  T/C: 132 % of control
dose: 0.78 mg/kg/injection, schedule: Q01DX009 (ip), vehicle: saline with Tween-80
  T/C: 138 % of control
dose: 12.5 mg/kg/injection, schedule: Q01DX009 (ip), vehicle: saline with Tween-80
  T/C: 144 % of control
[12]
  T/C: 117, 161, 309 % of control
  survivor count: 6 of 6
[3]
  survivor count: 6 of 6
[4]
  survivor count: 6 of 6
[5]
  survivor count: 4 of 6

## CSc1nc(=O)c(=O)nc(Nc2ccccc2)n1-c1ccccc1
[4]
  survivor count: 6 of 6
